These results are taken from article doi:10.1101/282137.

The target in this test is T1, CREB::GFP (C. elegans) (UniProt Q9U2I0).
T1 sequence: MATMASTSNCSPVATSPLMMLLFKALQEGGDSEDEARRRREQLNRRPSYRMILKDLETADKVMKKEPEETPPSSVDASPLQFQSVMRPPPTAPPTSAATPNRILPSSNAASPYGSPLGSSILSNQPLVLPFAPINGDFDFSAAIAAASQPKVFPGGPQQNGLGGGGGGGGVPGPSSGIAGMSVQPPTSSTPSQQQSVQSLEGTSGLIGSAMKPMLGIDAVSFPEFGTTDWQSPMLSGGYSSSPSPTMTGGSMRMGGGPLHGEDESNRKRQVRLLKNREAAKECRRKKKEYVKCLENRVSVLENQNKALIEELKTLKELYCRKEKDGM
Kind of test: co-IP.

These are yes or no findings as the source states them, for the method shown. Binding seen in cells or lysates may run through a third protein. Binding can be weak; no strength is given. Sequences can lack the tags named with a protein.

As for “THOC-1::3xHA::tdTomato (from UniProt Q9N5E3)”, the binding result is recorded as “binds”.
